{"sequences": {"note": "Amino acid sequences for entries named in this document (tags omitted).", "UniProt Q61188, whole entry": "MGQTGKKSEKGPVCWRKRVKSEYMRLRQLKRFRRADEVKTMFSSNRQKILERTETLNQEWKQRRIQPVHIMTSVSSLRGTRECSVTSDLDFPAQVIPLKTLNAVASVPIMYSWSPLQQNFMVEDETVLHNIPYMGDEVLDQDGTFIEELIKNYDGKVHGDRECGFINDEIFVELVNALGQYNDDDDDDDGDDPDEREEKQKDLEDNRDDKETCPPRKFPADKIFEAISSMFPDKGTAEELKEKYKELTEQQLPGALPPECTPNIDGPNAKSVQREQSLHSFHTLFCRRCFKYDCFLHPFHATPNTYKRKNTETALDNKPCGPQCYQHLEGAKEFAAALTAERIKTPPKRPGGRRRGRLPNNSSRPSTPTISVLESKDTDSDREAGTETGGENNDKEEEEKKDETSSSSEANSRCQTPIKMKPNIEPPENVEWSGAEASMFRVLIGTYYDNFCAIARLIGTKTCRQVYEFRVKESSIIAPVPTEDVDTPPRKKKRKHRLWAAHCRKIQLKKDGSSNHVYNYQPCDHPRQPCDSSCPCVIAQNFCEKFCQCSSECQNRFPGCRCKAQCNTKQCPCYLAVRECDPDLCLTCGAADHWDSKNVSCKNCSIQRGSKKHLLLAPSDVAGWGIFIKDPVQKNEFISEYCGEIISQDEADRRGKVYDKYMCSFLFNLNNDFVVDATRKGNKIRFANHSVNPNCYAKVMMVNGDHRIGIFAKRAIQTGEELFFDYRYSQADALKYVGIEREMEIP"}, "source": "ChEMBL document CHEMBL5674883", "about": "“The Heterochromatin Landscape in Migrating Cells and the Importance of H3K27me3 for Associated Transcriptome Alterations” (Cells, 2018)", "format_in_all_cases": "cell-based", "key": {"[1]": {"target": "T1, RNA polymerase II (Mus musculus) (UniProt P08775+Q8CFI7+P97760+A0A3Q4L2S8+Q80UW8+P61219+P62488+Q923G2+P60898+O08740+Q63871+P62876)", "assay": "Inhibition of RNA polymerase II in mouse B16-F1 migrating cells assessed as fold change in Mea1-RNA stability at 0.1 mM measured by ChIP-seq analysis relative to control cells"}, "[2]": {"target": "T1, RNA polymerase II (Mus musculus)", "assay": "Inhibition of RNA polymerase II in mouse B16-F1 migrating cells assessed as fold change in Rc3h2-RNA stability at 0.1 mM measured by ChIP-seq analysis relative to control cells"}, "[3]": {"target": "T1, RNA polymerase II (Mus musculus)", "assay": "Inhibition of RNA polymerase II in mouse B16-F1 migrating cells assessed as fold change in Elob-RNA stability at 0.1 mM measured by ChIP-seq analysis relative to control cells"}, "[4]": {"target": "T1, RNA polymerase II (Mus musculus)", "assay": "Inhibition of RNA polymerase II in mouse B16-F1 migrating cells assessed as fold change in Ak4-RNA stability at 0.1 mM measured by ChIP-seq analysis relative to control cells"}, "[5]": {"target": "T1, RNA polymerase II (Mus musculus)", "assay": "Inhibition of RNA polymerase II in mouse B16-F1 migrating cells assessed as fold change in Ctdspl2-RNA stability at 0.1 mM measured by ChIP-seq analysis relative to control cells"}, "[6]": {"target": "T1, RNA polymerase II (Mus musculus)", "assay": "Inhibition of RNA polymerase II in mouse B16-F1 migrating cells assessed as fold change in D3Ertd751e-RNA stability at 0.1 mM measured by ChIP-seq analysis relative to control cells"}, "[7]": {"target": "T1, RNA polymerase II (Mus musculus)", "assay": "Inhibition of RNA polymerase II in mouse B16-F1 migrating cells assessed as fold change in Rlim-RNA stability at 0.1 mM measured by ChIP-seq analysis relative to control cells"}, "[8]": {"target": "T1, RNA polymerase II (Mus musculus)", "assay": "Inhibition of RNA polymerase II in mouse B16-F1 migrating cells assessed as fold change in Lnpk-RNA stability at 0.1 mM measured by ChIP-seq analysis relative to control cells"}, "[9]": {"target": "T1, RNA polymerase II (Mus musculus)", "assay": "Inhibition of RNA polymerase II in mouse B16-F1 migrating cells assessed as fold change in Yif1b-RNA stability at 0.1 mM measured by ChIP-seq analysis relative to control cells"}, "[10]": {"target": "T1, RNA polymerase II (Mus musculus)", "assay": "Inhibition of RNA polymerase II in mouse B16-F1 migrating cells assessed as fold change in Eif5a2-RNA stability at 0.1 mM measured by ChIP-seq analysis relative to control cells"}, "[11]": {"target": "T1, RNA polymerase II (Mus musculus)", "assay": "Inhibition of RNA polymerase II in mouse B16-F1 migrating cells assessed as fold change in Dhx9-RNA stability at 0.1 mM measured by ChIP-seq analysis relative to control cells"}, "[12]": {"target": "T1, RNA polymerase II (Mus musculus)", "assay": "Inhibition of RNA polymerase II in mouse B16-F1 migrating cells assessed as fold change in Slc27a4-RNA stability at 0.1 mM measured by ChIP-seq analysis relative to control cells"}, "[13]": {"target": "T1, RNA polymerase II (Mus musculus)", "assay": "Inhibition of RNA polymerase II in mouse B16-F1 migrating cells assessed as fold change in Ube2v2-RNA stability at 0.1 mM measured by ChIP-seq analysis relative to control cells"}, "[14]": {"target": "T1, RNA polymerase II (Mus musculus)", "assay": "Inhibition of RNA polymerase II in mouse B16-F1 migrating cells assessed as fold change in Rad50-RNA stability at 0.1 mM measured by ChIP-seq analysis relative to control cells"}, "[15]": {"target": "T1, RNA polymerase II (Mus musculus)", "assay": "Inhibition of RNA polymerase II in mouse B16-F1 migrating cells assessed as fold change in 1110008F13Rik-RNA stability at 0.1 mM measured by ChIP-seq analysis relative to control cells"}, "[16]": {"target": "Histone-lysine N-methyltransferase EZH2 (Mus musculus) (UniProt Q61188)", "assay": "Inhibition of EZH2 in mouse B16-F1 migrating cells assessed as fold change in H3K27me3-independent regulated Myo1e-mRNA expression at 3 uM measured by ChIP-seq analysis relative to control cells"}, "[17]": {"target": "Histone-lysine N-methyltransferase EZH2 (Mus musculus) (UniProt Q61188)", "assay": "Inhibition of EZH2 in mouse B16-F1 migrating cells assessed as fold change in H3K27me3-independent regulated Lgals3-mRNA expression at 3 uM measured by ChIP-seq analysis relative to control cells"}, "[18]": {"target": "Histone-lysine N-methyltransferase EZH2 (Mus musculus) (UniProt Q61188)", "assay": "Inhibition of EZH2 in mouse B16-F1 migrating cells assessed as fold change in H3K27me3-buffered regulated Capg-mRNA expression at 3 uM measured by ChIP-seq analysis relative to control cells"}, "[19]": {"target": "Histone-lysine N-methyltransferase EZH2 (Mus musculus) (UniProt Q61188)", "assay": "Inhibition of EZH2 in mouse B16-F1 migrating cells assessed as fold change in H3K27me3-buffered regulated Lbh-mRNA expression at 3 uM measured by ChIP-seq analysis relative to control cells"}, "[20]": {"target": "Histone-lysine N-methyltransferase EZH2 (Mus musculus) (UniProt Q61188)", "assay": "Inhibition of EZH2 in mouse B16-F1 migrating cells assessed as fold change in H3K27me3-buffered regulated Rad54b-mRNA expression at 3 uM measured by ChIP-seq analysis relative to control cells"}, "[21]": {"target": "Histone-lysine N-methyltransferase EZH2 (Mus musculus) (UniProt Q61188)", "assay": "Inhibition of EZH2 in mouse B16-F1 migrating cells assessed as fold change in H3K27me3-buffered regulated Ube2t-mRNA expression at 3 uM measured by ChIP-seq analysis relative to control cells"}, "[22]": {"target": "Histone-lysine N-methyltransferase EZH2 (Mus musculus) (UniProt Q61188)", "assay": "Inhibition of EZH2 in mouse B16-F1 migrating cells assessed as fold change in H3K27me3-buffered regulated Cep192-mRNA expression at 3 uM measured by ChIP-seq analysis relative to control cells"}, "[23]": {"target": "Histone-lysine N-methyltransferase EZH2 (Mus musculus) (UniProt Q61188)", "assay": "Inhibition of EZH2 in mouse B16-F1 migrating cells assessed as fold change in H3K27me3-independent regulated Cebpb-mRNA expression at 3 uM measured by ChIP-seq analysis relative to control cells"}, "[24]": {"target": "Histone-lysine N-methyltransferase EZH2 (Mus musculus) (UniProt Q61188)", "assay": "Inhibition of EZH2 in mouse B16-F1 migrating cells assessed as fold change in H3K27me3-buffered regulated Gm16062-mRNA expression at 3 uM measured by ChIP-seq analysis relative to control cells"}, "[25]": {"target": "Histone-lysine N-methyltransferase EZH2 (Mus musculus) (UniProt Q61188)", "assay": "Inhibition of EZH2 in mouse B16-F1 migrating cells assessed as fold change in H3K27me3-buffered regulated Wdcp-mRNA expression at 3 uM measured by ChIP-seq analysis relative to control cells"}, "[26]": {"target": "Histone-lysine N-methyltransferase EZH2 (Mus musculus) (UniProt Q61188)", "assay": "Inhibition of EZH2 in mouse B16-F1 migrating cells assessed as fold change in H3K27me3-independent regulated Rgma-mRNA expression at 3 uM measured by ChIP-seq analysis relative to control cells"}, "[27]": {"target": "Histone-lysine N-methyltransferase EZH2 (Mus musculus) (UniProt Q61188)", "assay": "Inhibition of EZH2 in mouse B16-F1 migrating cells assessed as fold change in H3K27me3-buffered regulated Ppfibp2-mRNA expression at 3 uM measured by ChIP-seq analysis relative to control cells"}, "[28]": {"target": "Histone-lysine N-methyltransferase EZH2 (Mus musculus) (UniProt Q61188)", "assay": "Inhibition of EZH2 in mouse B16-F1 migrating cells assessed as fold change in H3K27me3-buffered regulated Malt1-mRNA expression at 3 uM measured by ChIP-seq analysis relative to control cells"}, "[29]": {"target": "Histone-lysine N-methyltransferase EZH2 (Mus musculus) (UniProt Q61188)", "assay": "Inhibition of EZH2 in mouse B16-F1 migrating cells assessed as fold change in H3K27me3-buffered regulated Wfs1-mRNA expression at 3 uM measured by ChIP-seq analysis relative to control cells"}, "[30]": {"target": "Histone-lysine N-methyltransferase EZH2 (Mus musculus) (UniProt Q61188)", "assay": "Inhibition of EZH2 in mouse B16-F1 migrating cells assessed as fold change in H3K27me3-buffered regulated Gm44103-mRNA expression at 3 uM measured by ChIP-seq analysis relative to control cells"}}, "note": "The source gives many values for each of these; only a part stands here.", "data": [{"smiles": "OC[C@H]1O[C@@H](n2cnc3cc(Cl)c(Cl)cc32)[C@H](O)[C@@H]1O", "values": [{"measurement": "log2FC", "setting": "[1]", "result": 0.49}, {"measurement": "log2FC", "setting": "[2]", "result": -0.45}, {"measurement": "log2FC", "setting": "[3]", "result": 0.56}, {"measurement": "log2FC", "setting": "[4]", "result": 0.54}, {"measurement": "log2FC", "setting": "[5]", "result": -0.54}, {"measurement": "log2FC", "setting": "[6]", "result": -0.95}, {"measurement": "log2FC", "setting": "[7]", "result": -0.5}, {"measurement": "log2FC", "setting": "[8]", "result": -0.65}, {"measurement": "log2FC", "setting": "[9]", "result": 0.52}, {"measurement": "log2FC", "setting": "[10]", "result": -0.66}, {"measurement": "log2FC", "setting": "[11]", "result": -0.68}, {"measurement": "log2FC", "setting": "[12]", "result": 0.54}, {"measurement": "log2FC", "setting": "[13]", "result": -0.68}, {"measurement": "log2FC", "setting": "[14]", "result": -0.57}, {"measurement": "log2FC", "setting": "[15]", "result": 0.41}]}, {"smiles": "CCCc1cc(C)[nH]c(=O)c1CNC(=O)c1cc(-c2ccnc(N3CCN(C)CC3)c2)cc2c1cnn2C(C)C", "values": [{"measurement": "log2FC", "setting": "[16]", "result": 0.5}, {"measurement": "log2FC", "setting": "[17]", "result": 0.78}, {"measurement": "log2FC", "setting": "[18]", "result": 0.41}, {"measurement": "log2FC", "setting": "[19]", "result": -0.53}, {"measurement": "log2FC", "setting": "[20]", "result": -0.52}, {"measurement": "log2FC", "setting": "[21]", "result": -0.51}, {"measurement": "log2FC", "setting": "[22]", "result": -0.53}, {"measurement": "log2FC", "setting": "[23]", "result": 0.44}, {"measurement": "log2FC", "setting": "[24]", "result": 0.77}, {"measurement": "log2FC", "setting": "[25]", "result": -0.52}, {"measurement": "log2FC", "setting": "[26]", "result": -0.72}, {"measurement": "log2FC", "setting": "[27]", "result": 0.41}, {"measurement": "log2FC", "setting": "[28]", "result": -0.52}, {"measurement": "log2FC", "setting": "[29]", "result": 0.47}, {"measurement": "log2FC", "setting": "[30]", "result": -0.68}]}]}
